{"source": "paper PMC4996945", "about": "“Crosstalk between MSH2–MSH3 and polβ promotes trinucleotide repeat expansion during base excision repair”", "test_system": "OGG1", "test": "gel filtration", "conditions": "1:1:1 OGG1, MSH2-MSH3, DNA, OGG1-DNA peak resolved from MSH2-MSH3-DNA; one 8-oxo-G (stated position 17, exact G not marked in text); complement not given; 10 mM HEPES pH 8.1, 110 mM NaCl, 1 mM DTT, 0.1 mg/ml BSA, 10% glycerol, 0.25% inositol, 5 mM Mg2+, 2 mM ATP, 2 mM ADP; on ice; recombinant protein", "note": "The exact form of at least one protein or probe is not confirmed.", "data": [{"sequence": "CAAGCACGTTGACTACCGTCCAGCAGCAGCAGCAGCAGCAGCAGCAGCAGCAGCAGCAGTTTGAGGCAGAGTCCGAACAC (double strand) [CAG-duplex (80) with one 8-oxo-G]", "values": [{"measurement": "binding result", "value": "binds"}]}]}
